# Assay results published in US11492327B2, “Aminooxylipids for the construction of self-assembling liposomal systems enabling their subsequent modification by biologically functional molecules” (VYSOKA SKOLA CHEMICKO-TECHNOLOGICKA V PRAZE, priority 2016, dated 2022).
# Assay: HA binding onto liposomes presenting the aminooxy group vs. the amino group (gel chromatography, fluorimetry)
# Details: liposome fraction (2 ml); 1 mg total lipid to 0.1 mg FITC-HA; lipid incorporated in liposomes
# Description: Methods: Liposomes presenting the aminooxy group were prepared by the procedure described in Example 15, containing 1% aminooxylipidid of general formula I (according to Example 14) at a starting concentration of 10 mg/ml PBS. The amino group-presenting liposomes were prepared by the same technique with the amino group-containing lipid DOPE. These liposomes at a starting concentration of 10 mg/ml PBS were mixed with fluorescently labelled HA (Sigma-Aldrich) at a concentration of 1 mg/ml PBS in a ratio of 1 mg total lipid to 0.1 mg HA. Incubation takes place for at least 30 minutes at room temperature (see Example 19). Both samples were incubated in 10 mM citric acid. Unbound HA was removed on a Superose 6 column (200 μl spraying buffer, flow rate of the first milliliter was 0.1 ml/min, then 0.3 ml/min, collection of 1 ml fractions). Fluorescence was measured using a Perkin Elmer fluorimeter at appropriate wavelengths (excitation for FITC-HA was 490 nm, emission 505 nm).
row,SMILES,"HA bound, % of the original HA amount"
1,"CCCCCCCC/C=C\CCCCCCCC(=O)OC[C@H](COP(=O)(O)OCCN)OC(=O)CCCCCCC/C=C\CCCCCCCC [DOPE, 1,2-dioleoyl-sn-glycero-3-phosphoethanolamine, reference compound]",27%
2,"CCCCCCCCCCCCCCC(CCCCCCCCCCCCCC)C(=O)NCCNC(=O)CON.O=C(O)C(F)(F)F [Example 12, N^1-(2-tetradecylhexadecanoyl)-N^2-amoniumoxyacetyl-1,2-diaminoethane-trifluoroacetate]",almost identical
3,"CCCCCCCCCCCCCCC(CCCCCCCCCCCCCC)C(=O)NCCCNC(=O)CON.O=C(O)C(F)(F)F [Example 13, N^1-(2-tetradecylhexadecanoyl)-N^3-amoniumoxyacetyl-1,3-diaminopropane-trifluoracetate]",almost identical
4,"CCCCCCCCCCCCCCC(CCCCCCCCCCCCCC)C(=O)NCOC(CCOCC)NC(=O)CON.O=C(O)C(F)(F)F (stereo not shown) [Example 14, N^1-(2-tetradecylhexadecanoyl)-N^3-amoniumoxyacetyl-1,3-diamino-2,6-dioxaoctane-trifluoracetate]",45%
